Measured values: patent US20140243414A1, “PHARMACEUTICAL COMPOSITIONS OF CETP INHIBITORS” (Japan Tobacco Inc., priority 2003, published 2014)
At least one structure is not confirmed: it was looked up by name or label, or the drawing left a doubt.

Key:
CETP [1] = molecular target: T1, CETP (Oryctolagus cuniculus, UniProt P22687); conditions: rabbits; Shinkai et al., Kobayashi et al., Okamoto et al.; cited from earlier work
T1 sequence (P22687 2-497): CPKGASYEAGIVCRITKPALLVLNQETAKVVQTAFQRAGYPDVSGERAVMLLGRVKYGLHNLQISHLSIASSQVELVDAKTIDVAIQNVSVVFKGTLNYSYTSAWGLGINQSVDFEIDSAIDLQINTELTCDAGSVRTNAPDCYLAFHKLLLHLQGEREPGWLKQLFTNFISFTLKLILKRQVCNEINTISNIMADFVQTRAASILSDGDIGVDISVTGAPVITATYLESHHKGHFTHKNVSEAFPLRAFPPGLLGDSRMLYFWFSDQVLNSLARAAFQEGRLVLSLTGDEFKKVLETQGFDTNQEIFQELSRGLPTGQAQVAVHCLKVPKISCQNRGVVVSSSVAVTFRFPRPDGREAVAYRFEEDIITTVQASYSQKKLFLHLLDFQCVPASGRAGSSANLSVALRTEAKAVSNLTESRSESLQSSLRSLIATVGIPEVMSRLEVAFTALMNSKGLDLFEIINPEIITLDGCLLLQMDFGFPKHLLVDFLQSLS

CETP [2] = molecular target: T2, CETP (Homo sapiens, UniProt P11597); conditions: humans; de Grooth et al.; cited from earlier work
T2 construct: from tissue; host or cells: blood / plasma of human subjects dosed orally with Compound I
T2 sequence (P11597 18-493): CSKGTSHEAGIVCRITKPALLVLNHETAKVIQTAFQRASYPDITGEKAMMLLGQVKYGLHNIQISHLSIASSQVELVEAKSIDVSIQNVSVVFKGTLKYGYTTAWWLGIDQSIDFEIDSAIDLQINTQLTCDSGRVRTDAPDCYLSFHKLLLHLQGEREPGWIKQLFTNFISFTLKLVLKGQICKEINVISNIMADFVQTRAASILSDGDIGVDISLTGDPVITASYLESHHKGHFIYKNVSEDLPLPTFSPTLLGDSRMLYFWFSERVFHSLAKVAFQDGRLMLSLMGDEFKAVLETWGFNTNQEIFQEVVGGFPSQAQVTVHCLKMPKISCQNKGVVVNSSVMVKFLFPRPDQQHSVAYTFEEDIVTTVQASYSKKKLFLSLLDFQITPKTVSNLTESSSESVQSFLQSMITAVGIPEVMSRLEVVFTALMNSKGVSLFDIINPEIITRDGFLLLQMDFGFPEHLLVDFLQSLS

CETP [3] = molecular target: T2, CETP; assay: Food effect on CETP activity, 900 mg Compound I, Caucasian males (Example 6); type: in vivo
Source text: Administration, dosing, and sampling schedules were substantially similar to those described in Example 1.
The procedure for determining CETP activity is described in Example 5.
The mean changes from baseline (pre-dose) in CETP activity over time are set out in the plot of FIG. 3.

CETP [4] = molecular target: T2, CETP; assay: Food effect on relative CETP activity, 600 mg Compound I, Japanese males (Example 8); type: in vivo
Procedure: Administration, dosing, and sampling schedules were commensurate with those described in Examples 1 and 6. […] Patients were administered two tablets of 300 mg each. The tablets were prepared as described in Example 1.
Relative CETP activities (calculated as a percentage of baseline CETP activity) and standard deviations (SD) were measured, and the resulting data is summarized in Table 9.

For `CCC(CC)CC1(C(=O)Nc2ccccc2SC(=O)C(C)C)CCCCC1` [Compound I, S-[2-([[1-(2-ethylbutyl)cyclohexyl]carbonyl]amino)phenyl]2-methylpropanethioate], the “Inhibition of CETP activity” value (CETP [1]) is listed as “inhibitor of CETP activity”, the “Inhibition of CETP activity” value (CETP [2]) is listed as “inhibitor of CETP activity” and the “Inhibition of CETP activity, fed versus fasted treatment protocol” value (CETP [3]) is listed as “much more marked in the fed treatment protocol”. For the same compound, the “Inhibition of CETP activity, fed versus fasted treatment protocol” value (CETP [4]; 600 mg) was “much more marked in the fed treatment protocol”, the “Time of peak inhibition of CETP activity post-administration” value (CETP [4]; 600 mg with food) was 6 h and the “Time of peak inhibition of CETP activity post-administration” value (CETP [4]; 600 mg without food) was 8 h.
